The other results are listed elsewhere or left out.
Key:
Assay in all cases: glycan array binding signal (z-score within array); higher = stronger binding
Conditions in all cases: glycan notation: IUPAC condensed, linker removed
[1] = biological target: Fuc(a1-2)Gal6S(b1-3)GlcNAc6S
Outline: (§1)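 The Consortium for Functional Glycomics database supplied 3228 glycan arrays, of which those lacking an available protein sequence were dropped. The binding signal, a within-array Z-score, was averaged across arrays of the same protein sequence and across linkers. Negative scores can be read as non-binding.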

Fuc(a1-2)Gal6S(b1-4)Glc = biological target: Fuc(a1-2)Gal6S(b1-4)Glc
Outline: as §1

[2] = biological target: Fuc(a1-2)Gal6S(b1-4)Glc6S
Outline: as §1

Fuc(a1-2)[Gal(a1-3)]Gal = biological target: Fuc(a1-2)[Gal(a1-3)]Gal
Outline: as §1

[3] = biological target: Fuc(a1-2)[Gal(a1-3)]Gal(b1-3)GalNAc
Outline: as §1

[4] = biological target: Fuc(a1-2)[Gal(a1-3)]Gal(b1-3)GalNAc(b1-3)Gal(a1-4)Gal(b1-4)Glc
Outline: as §1

[5] = biological target: Fuc(a1-2)[Gal(a1-3)]Gal(b1-3)GlcNAc
Outline: as §1

[6] = biological target: Fuc(a1-2)[Gal(a1-3)]Gal(b1-3)GlcNAc(b1-2)Man(a1-3)[Fuc(a1-2)[Gal(a1-3)]Gal(b1-3)GlcNAc(b1-2)Man(a1-6)]Man(b1-4)GlcNAc(b1-4)GlcNAc
Outline: as §1

[7] = biological target: Fuc(a1-2)[Gal(a1-3)]Gal(b1-3)GlcNAc(b1-2)Man(a1-3)[Fuc(a1-2)[Gal(a1-3)]Gal(b1-3)GlcNAc(b1-2)Man(a1-6)]Man(b1-4)GlcNAc(b1-4)[Fuc(a1-6)]GlcNAc
Outline: as §1

[8] = biological target: Fuc(a1-2)[Gal(a1-3)]Gal(b1-3)GlcNAc(b1-3)GalNAc
Outline: as §1

[9] = biological target: Fuc(a1-2)[Gal(a1-3)]Gal(b1-3)GlcNAc(b1-6)GalNAc
Outline: as §1

[10] = biological target: Fuc(a1-2)[Gal(a1-3)]Gal(b1-4)Glc
Outline: as §1

[11] = biological target: Fuc(a1-2)[Gal(a1-3)]Gal(b1-4)GlcNAc
Outline: as §1

[12] = biological target: Fuc(a1-2)[Gal(a1-3)]Gal(b1-4)GlcNAc(b1-2)Man
Outline: as §1

[13] = biological target: Fuc(a1-2)[Gal(a1-3)]Gal(b1-4)GlcNAc(b1-2)Man(a1-3)[Fuc(a1-2)[Gal(a1-3)]Gal(b1-4)GlcNAc(b1-2)Man(a1-6)]Man(b1-4)GlcNAc(b1-4)GlcNAc
Outline: as §1

[14] = biological target: Fuc(a1-2)[Gal(a1-3)]Gal(b1-4)GlcNAc(b1-2)Man(a1-3)[Fuc(a1-2)[Gal(a1-3)]Gal(b1-4)GlcNAc(b1-2)Man(a1-6)]Man(b1-4)GlcNAc(b1-4)[Fuc(a1-6)]GlcNAc
Outline: as §1

[15] = biological target: Fuc(a1-2)[Gal(a1-3)]Gal(b1-4)GlcNAc(b1-3)GalNAc
Outline: as §1

[16] = biological target: Fuc(a1-2)[Gal(a1-3)]Gal(b1-4)GlcNAc(b1-3)[Fuc(a1-2)[Gal(a1-3)]Gal(b1-4)GlcNAc(b1-6)]GalNAc
Outline: as §1

[17] = biological target: Fuc(a1-2)[Gal(a1-3)]Gal(b1-4)GlcNAc(b1-6)GalNAc
Outline: as §1

[18] = biological target: Fuc(a1-2)[Gal(a1-3)]Gal(b1-4)[Fuc(a1-3)]Glc
Outline: as §1

[19] = biological target: Fuc(a1-2)[Gal(a1-3)]Gal(b1-4)[Fuc(a1-3)]GlcNAc
Outline: as §1

[20] = biological target: Fuc(a1-2)[Gal(a1-3)]Gal(b1-4)[Fuc(a1-3)]GlcNAc(b1-3)GalNAc
Outline: as §1

[21] = biological target: Fuc(a1-2)[Gal(a1-4)]Gal(b1-4)GlcNAc
Outline: as §1

[22] = biological target: Fuc(a1-2)[GalNAc(a1-3)]Gal
Outline: as §1

[23] = biological target: Fuc(a1-2)[GalNAc(a1-3)]Gal(b1-3)GalNAc(a1-3)[Fuc(a1-2)]Gal(b1-4)GlcNAc
Outline: as §1

[24] = biological target: Fuc(a1-2)[GalNAc(a1-3)]Gal(b1-3)GalNAc(b1-3)Gal(a1-4)Gal(b1-4)Glc
Outline: as §1

[25] = biological target: Fuc(a1-2)[GalNAc(a1-3)]Gal(b1-3)GlcNAc
Outline: as §1

[26] = biological target: Fuc(a1-2)[GalNAc(a1-3)]Gal(b1-3)GlcNAc(b1-2)Man(a1-3)[Fuc(a1-2)[GalNAc(a1-3)]Gal(b1-3)GlcNAc(b1-2)Man(a1-6)]Man(b1-4)GlcNAc(b1-4)GlcNAc
Outline: as §1

[27] = biological target: Fuc(a1-2)[GalNAc(a1-3)]Gal(b1-3)GlcNAc(b1-2)Man(a1-3)[Fuc(a1-2)[GalNAc(a1-3)]Gal(b1-3)GlcNAc(b1-2)Man(a1-6)]Man(b1-4)GlcNAc(b1-4)[Fuc(a1-6)]GlcNAc
Outline: as §1

[28] = biological target: Fuc(a1-2)[GalNAc(a1-3)]Gal(b1-3)GlcNAc(b1-3)GalNAc
Outline: as §1

[29] = biological target: Fuc(a1-2)[GalNAc(a1-3)]Gal(b1-3)GlcNAc(b1-6)GalNAc
Outline: as §1

[30] = biological target: Fuc(a1-2)[GalNAc(a1-3)]Gal(b1-4)Glc
Outline: as §1

[31] = biological target: Fuc(a1-2)[GalNAc(a1-3)]Gal(b1-4)GlcNAc
Outline: as §1

[32] = biological target: Fuc(a1-2)[GalNAc(a1-3)]Gal(b1-4)GlcNAc(b1-2)Man
Outline: as §1

[33] = biological target: Fuc(a1-2)[GalNAc(a1-3)]Gal(b1-4)GlcNAc(b1-2)Man(a1-3)[Fuc(a1-2)[GalNAc(a1-3)]Gal(b1-4)GlcNAc(b1-2)Man(a1-6)]Man(b1-4)GlcNAc(b1-4)GlcNAc
Outline: as §1

[34] = biological target: Fuc(a1-2)[GalNAc(a1-3)]Gal(b1-4)GlcNAc(b1-2)Man(a1-3)[Fuc(a1-2)[GalNAc(a1-3)]Gal(b1-4)GlcNAc(b1-2)Man(a1-6)]Man(b1-4)GlcNAc(b1-4)[Fuc(a1-6)]GlcNAc
Outline: as §1

[35] = biological target: Fuc(a1-2)[GalNAc(a1-3)]Gal(b1-4)GlcNAc(b1-3)Gal(b1-4)GlcNAc
Outline: as §1

[36] = biological target: Fuc(a1-2)[GalNAc(a1-3)]Gal(b1-4)GlcNAc(b1-3)Gal(b1-4)GlcNAc(b1-3)Gal(b1-4)GlcNAc
Outline: as §1

[37] = biological target: Fuc(a1-2)[GalNAc(a1-3)]Gal(b1-4)GlcNAc(b1-3)GalNAc
Outline: as §1

[38] = biological target: Fuc(a1-2)[GalNAc(a1-3)]Gal(b1-4)GlcNAc(b1-3)[Fuc(a1-2)[GalNAc(a1-3)]Gal(b1-4)GlcNAc(b1-6)]GalNAc
Outline: as §1

[39] = biological target: Fuc(a1-2)[GalNAc(a1-3)]Gal(b1-4)GlcNAc(b1-6)GalNAc
Outline: as §1

[40] = biological target: Fuc(a1-2)[GalNAc(a1-3)]Gal(b1-4)[Fuc(a1-3)]GlcNAc
Outline: as §1

[41] = biological target: Fuc(a1-2)[GalNAc(a1-3)]Gal(b1-4)[Fuc(a1-3)]GlcNAc(b1-3)GalNAc
Outline: as §1

[42] = biological target: Fuc(a1-2)[GalNAc(a1-4)]Gal(b1-4)GlcNAc
Outline: as §1

[43] = biological target: Fuc(a1-2)[GalNAc(b1-3)]Gal
Outline: as §1

B1: Aap lectin (Staphylococcus epidermidis) (protein)
chain: VNLNYSSPFMSLLSMPADSSSNNTKNTIDIPPTTVKGRDNYDFYGRVDIESNPTDLNATNLTRYNYGQPPGTTTAGAVQFKNQVSFDKDFDFNIRVANNRQSNTTGADGWGFMFSKKDGDDFLKNGGILREKGTPSAAGFRIDTGYYNNDPLDKIQKQAGQGYRGYGTFVKNDSQGNTSKVGSGTPSTDFLNYADNTTNDLDGKFHGQKLNNVNLKYNASNQTFTATYAGKTWTATLSELGLSPTDSYNFLVTSS
[1]
  glycan array binding signal (z-score): 0.923
Fuc(a1-2)Gal6S(b1-4)Glc
  glycan array binding signal (z-score): -0.572
[2]
  glycan array binding signal (z-score): 0.261
Fuc(a1-2)[Gal(a1-3)]Gal
  glycan array binding signal (z-score): 0.96
[3]
  glycan array binding signal (z-score): 0.652
[4]
  glycan array binding signal (z-score): -0.514
[5]
  glycan array binding signal (z-score): -0.695
[6]
  glycan array binding signal (z-score): -0.525
[7]
  glycan array binding signal (z-score): 3.02
[8]
  glycan array binding signal (z-score): 0.082
[9]
  glycan array binding signal (z-score): 1.45
[10]
  glycan array binding signal (z-score): 1.2
[11]
  glycan array binding signal (z-score): 3.04
[12]
  glycan array binding signal (z-score): -0.838
[13]
  glycan array binding signal (z-score): 0.077
[14]
  glycan array binding signal (z-score): 1.01
[15]
  glycan array binding signal (z-score): 0.329
[16]
  glycan array binding signal (z-score): 2.98
[17]
  glycan array binding signal (z-score): -0.267
[18]
  glycan array binding signal (z-score): -0.864
[19]
  glycan array binding signal (z-score): 0.74
[20]
  glycan array binding signal (z-score): 0.37
[21]
  glycan array binding signal (z-score): -0.34
[22]
  glycan array binding signal (z-score): -0.692
[23]
  glycan array binding signal (z-score): 0.928
[24]
  glycan array binding signal (z-score): -0.573
[25]
  glycan array binding signal (z-score): -0.846
[26]
  glycan array binding signal (z-score): -0.562
[27]
  glycan array binding signal (z-score): -0.893
[28]
  glycan array binding signal (z-score): -0.395
[29]
  glycan array binding signal (z-score): 1.3
[30]
  glycan array binding signal (z-score): -0.043
[31]
  glycan array binding signal (z-score): -0.868
[32]
  glycan array binding signal (z-score): -0.759
[33]
  glycan array binding signal (z-score): -0.574
[34]
  glycan array binding signal (z-score): -0.849
[35]
  glycan array binding signal (z-score): -0.888
[36]
  glycan array binding signal (z-score): 0.553
[37]
  glycan array binding signal (z-score): 0.8
[38]
  glycan array binding signal (z-score): 0.427
[39]
  glycan array binding signal (z-score): -0.657
[40]
  glycan array binding signal (z-score): 1.53
[41]
  glycan array binding signal (z-score): 0.814
[42]
  glycan array binding signal (z-score): 0.219
[43]
  glycan array binding signal (z-score): -0.891
